PubChem BioAssay AID1259254, NCATS | 2017
In all, the deposit lists about 59,000 reagents; shown is a random part of them. Of all reagents, about 1,550 (2.6%) were called active. 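G2 share is only a proxy for re-replication; each gene was hit by three separate siRNAs, and active genes were retested.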 Reagents against one gene are numbered here. Further read-outs or replicates are left out here. The record does not give: the amount of reagent.

Aim: 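Genome-wide screen for genes that prevent DNA re-replication in cancer cells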 (primary screen)
Cell system: human HCT116 colorectal cancer cells
Knock-down reagent: single siRNA against human genes
Timing: 3 days
Measured: 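Imaged Hoechst DNA stain sorts each cell into a cycle phase by DNA amount; per plate, G2 fraction set to 0% for non-targeting and 100% for GMNN siRNA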
Reading the numbers: G2 robust z-score and G2 cells, % of GMNN control: higher = more G2 cells, more excess DNA replication
Call rule: 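Active siRNAs have a G2 robust z of 5 or more median absolute deviations over the median, which in these data means about 38% or higher of GMNN control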

RDM1 (RAD52 motif containing 1) #1 | G2 robust z-score: -0.705; G2 cells, % of GMNN control: -1.99; Call: inactive
RDM1 (RAD52 motif containing 1) #2 | G2 robust z-score: 0.317; G2 cells, % of GMNN control: 5.2; Call: inactive
RDM1 (RAD52 motif containing 1) #3 | G2 robust z-score: -0.219; G2 cells, % of GMNN control: 1.43; Call: inactive
PTGS2 (prostaglandin-endoperoxide synthase 2) #1 | G2 robust z-score: 1.1; G2 cells, % of GMNN control: 10.7; Call: inactive
PTGS2 (prostaglandin-endoperoxide synthase 2) #2 | G2 robust z-score: 4.13; G2 cells, % of GMNN control: 32.1; Call: inactive
PTGS2 (prostaglandin-endoperoxide synthase 2) #3 | G2 robust z-score: 1.74; G2 cells, % of GMNN control: 15.2; Call: inactive
NDUFAF7 (NADH:ubiquinone oxidoreductase complex assembly factor 7) #1 | G2 robust z-score: 0.591; G2 cells, % of GMNN control: 7.12; Call: inactive
NDUFAF7 (NADH:ubiquinone oxidoreductase complex assembly factor 7) #2 | G2 robust z-score: -0.176; G2 cells, % of GMNN control: 1.73; Call: inactive
NDUFAF7 (NADH:ubiquinone oxidoreductase complex assembly factor 7) #3 | G2 robust z-score: 1.3; G2 cells, % of GMNN control: 12.1; Call: inactive
ERGIC1 (endoplasmic reticulum-golgi intermediate compartment 1) #1 | G2 robust z-score: 1.34; G2 cells, % of GMNN control: 12.4; Call: inactive
ERGIC1 (endoplasmic reticulum-golgi intermediate compartment 1) #2 | G2 robust z-score: -0.465; G2 cells, % of GMNN control: -0.306; Call: inactive
ERGIC1 (endoplasmic reticulum-golgi intermediate compartment 1) #3 | G2 robust z-score: -0.5; G2 cells, % of GMNN control: -0.55; Call: inactive
DCTN2 (dynactin subunit 2) #1 | G2 robust z-score: 0.294; G2 cells, % of GMNN control: 5.03; Call: inactive
DCTN2 (dynactin subunit 2) #2 | G2 robust z-score: -0.614; G2 cells, % of GMNN control: -1.35; Call: inactive
DCTN2 (dynactin subunit 2) #3 | G2 robust z-score: 3.19; G2 cells, % of GMNN control: 25.4; Call: inactive
TRIM61 (tripartite motif containing 61) #1 | G2 robust z-score: -0.907; G2 cells, % of GMNN control: -3.41; Call: inactive
TRIM61 (tripartite motif containing 61) #2 | G2 robust z-score: 2.47; G2 cells, % of GMNN control: 20.4; Call: inactive
TRIM61 (tripartite motif containing 61) #3 | G2 robust z-score: -0.0413; G2 cells, % of GMNN control: 2.68; Call: inactive
F13A1 (coagulation factor XIII A chain) #1 | G2 robust z-score: 0.617; G2 cells, % of GMNN control: 7.31; Call: inactive
F13A1 (coagulation factor XIII A chain) #2 | G2 robust z-score: 1.25; G2 cells, % of GMNN control: 11.7; Call: inactive
F13A1 (coagulation factor XIII A chain) #3 | G2 robust z-score: 1.36; G2 cells, % of GMNN control: 12.6; Call: inactive
ARHGAP19 (Rho GTPase activating protein 19) #1 | G2 robust z-score: -0.087; G2 cells, % of GMNN control: 2.35; Call: inactive
ARHGAP19 (Rho GTPase activating protein 19) #2 | G2 robust z-score: -0.878; G2 cells, % of GMNN control: -3.21; Call: inactive
ARHGAP19 (Rho GTPase activating protein 19) #3 | G2 robust z-score: -0.515; G2 cells, % of GMNN control: -0.656; Call: inactive
AVEN (apoptosis and caspase activation inhibitor) #1 | G2 robust z-score: 0.365; G2 cells, % of GMNN control: 5.53; Call: inactive
AVEN (apoptosis and caspase activation inhibitor) #2 | G2 robust z-score: 0.288; G2 cells, % of GMNN control: 5; Call: inactive
AVEN (apoptosis and caspase activation inhibitor) #3 | G2 robust z-score: -0.583; G2 cells, % of GMNN control: -1.14; Call: inactive
OR6C75 (olfactory receptor family 6 subfamily C member 75) #1 | G2 robust z-score: -0.302; G2 cells, % of GMNN control: 0.842; Call: inactive
OR6C75 (olfactory receptor family 6 subfamily C member 75) #2 | G2 robust z-score: 1.25; G2 cells, % of GMNN control: 11.8; Call: inactive
OR6C75 (olfactory receptor family 6 subfamily C member 75) #3 | G2 robust z-score: -0.0362; G2 cells, % of GMNN control: 2.71; Call: inactive

As entered above.
TRIM61 (tripartite motif containing 61) #1, Call → inactive
Value of PTGS2 (prostaglandin-endoperoxide synthase 2) #3 under “G2 cells, % of GMNN control”: 15.2
